Measurements from the supplement of paper PMC6445147.
Single values of this data set are uncertain.

B1: human tRNA-Pro; a variant is named by its letters at N, in order (parent)
chain: GGCTCGTTGGTCTAGNGGTATGATTCTCGCTTAGGGTGCGAGAGGTCCCGGGTTCNNATCCCGGACGAGCCC

Variants of: B1
Assay: tRNA 3' processing efficiency (processed reads / all reads, maximum-likelihood estimate) (fraction); higher = more efficient 3' processing
Conditions: HEK293T; construct: no Pol-II promoter ((-)CMV library)

tRNA 3' processing efficiency, 0.67:
GTA T19A A20T G51A A58C
GTT G15T G18A

tRNA 3' processing efficiency, 0.52:
GTA G9A A14G A58G

tRNA 3' processing efficiency, 0.57:
TTA T13A G15T

tRNA 3' processing efficiency, 0.43:
CTA T8G T19A A58G
GTG A14C G15C
ATA G17T A20T
ATA A58G T59C
ATA G15T G17T T53C

tRNA 3' processing efficiency, 0.21:
GTA G9A G15A A58G
CTA T19C A20T A58C

tRNA 3' processing efficiency, 0.73:
CTA A33T A58G
TTC G17A

tRNA 3' processing efficiency, 0.17:
GTC G15A A58T
GTA T8C G9A A58C
ATT A14T
CTT A14C G17T
ATA T19G A58T
ATA G15T A58C
TTA T8G G15C
GTT G9A A14G G17T T59C
CTA G15T A20G

tRNA 3' processing efficiency, 0.25:
ATA G15C T19G
GTT G18T T19C
GTA T8C A20T T59C
GTA G9T T19G A58T T59C
GTG T19A T59G
GTT T8C T59C
GTG T19A A20T
CTA G15T T19G T53G
CTA T8C A20G A58G
GTA A14T G50A T59C
GTA T8G G15A A58G T59G
GTG A14G T19A
TTA T19C A58T
GTG G15C A58G
TTC T8A T19C
GTC T19A A20T A58C
ATA T8C A58G T59C
TTA A14T T19A A58T
CTA G18T A58G
CTT A14T T19G
GTC T8A G17C A20G
GTA G17A G18A T19A
GTA G17T A20C A58T
GTA G9T A14G G15T T19A
TTC A20G T59G
TTA T19A A20C
TTA T19A C55G
ATA A58G T59G
GTT T19G T59G
GTT G15A T59G
GTA T19G A58C T59G
GTA T8A A14G G17T
GTA G17T T19G A58G

tRNA 3' processing efficiency, 0.45:
CTA T19C T54A
GTA T19A A20T A58G T59G

tRNA 3' processing efficiency, 0.7:
GTA G17T G18C A58T
ATA T19C A58C

tRNA 3' processing efficiency, 0.14:
TTG T19C

tRNA 3' processing efficiency, 0.75:
GTA T8G G15T A58C

tRNA 3' processing efficiency, 0.83:
GTA T8G A14G G15T

tRNA 3' processing efficiency, 0.06:
ATG A58G

tRNA 3' processing efficiency, 0.56:
ATA T19G T53G A58G
CTA T19C A58T T59C

tRNA 3' processing efficiency, 0.42:
CTA G15C T59A

tRNA 3' processing efficiency, 0.38:
GTA G9A T19A A20G
TTA T19A A58C

tRNA 3' processing efficiency, 0.5:
CTA T19A C55A A58G
GTA T11C
GTA T8G T59C
CTA T53A T59C
CTT G9A
GTA G9A A14T T19C

tRNA 3' processing efficiency, 0.13:
GTA T8G G18T A58G
GTC G18A T19G A58T

tRNA 3' processing efficiency, 0.69:
ATG T54A

tRNA 3' processing efficiency, 0.46:
ATC A14T

tRNA 3' processing efficiency, 0.33:
ATG A20G
GTA G9A A20T T59C
GTA G2C C3T C5T T8G G15T
GTA G15C G18A A20T
GTT G15A G17C A20C
GTA T19A C55G A58G
GTA A14T T19G A58C
CTC T8A A20T
GTA T19G A20C A58G
ATC G15A T19G
GTC A14T T19A A20G

tRNA 3' processing efficiency, 0.44:
ATA T8G A58G
GTA G18C T19C T53A

tRNA 3' processing efficiency, 0.2:
TTT T8C
TTA A20C A58G
GTA T8C G15T T59A
CTA G34A A58G
ATA T8C T59G
GTG G18A A20T
ATA T19A A20G A58G
TTA A14T T59G
ATA T19C A58T
TTA T19C A58C
TTA T19A A20C T59A
ATA T8C T19G
GTA T8C T19A G35A A58C
CTG T59G
GTA T8C T19C T59G
GTA G9A T19A A58C
ATA T19G A20T T59C
TTA T19C A58T T59G

Five successive entries already listed:
tRNA 3' processing efficiency, 0.2:
TTA T19A A20C T59A
ATA T8C T19G
GTA T8C T19A G35A A58C
CTG T59G
GTA T8C T19C T59G

Next part.

tRNA 3' processing efficiency, 0.76:
GTA T8C G9T A58T

tRNA 3' processing efficiency, 0.23:
TTA G15C G17C

tRNA 3' processing efficiency, 0.4:
ATC A58T
TTA C70T
GTA T53A A58G T59G
GTA A14T T19G A20T
GTG A14G T19G A58G
ATG G17T
TTA G17A A20G T53A
GTA A14T G45T

tRNA 3' processing efficiency, 0.27:
ATA G9T T19C A20T
ATC G9A

tRNA 3' processing efficiency, 0.22:
GTC G9A A14G A58T T59C

tRNA 3' processing efficiency, 0.11:
GTA T8A T19A A58G

tRNA 3' processing efficiency, 0.86:
ATG A58G T59A

Variants of: B1
Assay: tRNA 5' processing efficiency (processed reads / all reads, maximum-likelihood estimate) (fraction); higher = more efficient 5' processing
Conditions: HEK293T; construct: CMV Pol-II promoter ((+)CMV library, decapped)

tRNA 5' processing efficiency, 0.78:
CAA A14C G15A G18C A58G

tRNA 5' processing efficiency, 0.22:
GAA A14T G17T A20G A58C

tRNA 5' processing efficiency, 0.5:
GAA A14G T19A A20G C55A
AAA A14G T53G C55T

tRNA 5' processing efficiency, 0.33:
GAA A14G A20G T54A A58C
GAA A14T G18A T54C C55G
GAA A14G C55T

tRNA 5' processing efficiency, 0.05:
GAA A14G G18C T54A A58T

tRNA 5' processing efficiency, 0.25:
GAA A14G G18A T54C
CAA A14G G15A G17T T54A C55T A58G
GAA A14T G18T C55A A58T
GAA A14G G15T A20G T54C
GAA A14G C55A
GAA A14G G15T A20T T54A
GAA A14C G15T G18T A20T T54C C55T
GAA A14C G17T T54A C55T
GAA A14G A20G A58G
AAA A14T G15T C55A
CAA A14T G18C A20G T59C
GAA A14G G17T A20C G44A C55G T59G
GAA A14G T19G C55G
CAA A14C T19G A20C T54C

tRNA 5' processing efficiency, 0.17:
GAA A14T G18A A20T T53C T59C
GAA A14T G18C T54A T59G
GAA A14T G18T A20C A58T
GAA A14T G17C G18A
GAA A14T G15C T19G
TAA A14C G15C C55T

tRNA 5' processing efficiency, 0.73:
GAA A14T T19C T54C T59G

tRNA 5' processing efficiency, 0.43:
TAA A14G A20T

tRNA 5' processing efficiency, 0.11:
GAA A14G T53G T59C

tRNA 5' processing efficiency, 0.14:
GAA A14G G17T T53A

tRNA 5' processing efficiency, 0.09:
AAA A14G G18A T54A

tRNA 5' processing efficiency, 0.4:
GAA A14G A20G T53G C55A A58C
GAA A14G G18A T53A T59G
AAA A14T G15C T19A C55T
CAA A14C A20T A58C

tRNA 5' processing efficiency, 0.2:
GAA A14T G18A T19G
GAA A14G T19C A20T
GAA A14G G15A G17A C55T A58T
GAA A14G G15T G17T G52A

tRNA 5' processing efficiency, 0.18:
AAA A14C G17A C55A

tRNA 5' processing efficiency, 0.67:
GAA A14T G17T
